According to the supplement of paper PMC4635364:
Structures can show the parent of a compound that is named as a salt. This is one part of the list. Repeats in this data set agree poorly, so a single value says little.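 Human fetal ventral-midbrain neural progenitor line ReNCell VM, differentiated without mitogens. Images stained for doublecortin (early neurons) or tyrosine hydroxylase (dopaminergic neurons) were scored by blinded raters against untreated wells (0 = no change). Repeats and both raters were averaged, and compounds averaging 2 or higher were picked as hits for retesting.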

Tested on: ReNCell VM
Assay: neuronal differentiation score (DCX+ cell fraction vs untreated, manual image score) (score (-3 to 3)); higher = more neuronal differentiation
Settings: library: Prestwick; 2 uM; 2 weeks

Row | SMILES | neuronal differentiation score
1 | CC(C)N(CCC(C(N)=O)(c1ccccc1)c1ccccn1)C(C)C (stereo not given) [Disopyramide] | inactive: 0
2 | NCCC(O)C(=O)NC1CC(N)C(OC2OC(CN)C(O)[C@H](O)[C@@H]2N)[C@H](OC2O[C@H](CO)[C@@H](O)[C@@H]2O)[C@@H]1O (stereo not given in full) [Butirosin disulfate salt] | inactive: 0
3 | CCOC(=O)c1cncn1[C@H](C)c1ccccc1 [Etomidate] | inactive: 0
4 | CC[C@@H](CO)NC(=O)[C@@H]1C=C2c3cccc4[nH]cc(c34)C[C@H]2N(C)C1 [Methylergometrine maleate] | inactive: 0
5 | CC[C@@]1([C@@H]2O[C@@H]([C@H]3O[C@@](O)(CO)[C@H](C)C[C@@H]3C)C[C@@H]2C)CC[C@H]([C@]2(C)CC[C@]3(C[C@H](O)[C@@H](C)[C@@H]([C@@H](C)[C@@H](OC)[C@H](C)C(=O)O)O3)O2)O1 [Monensin sodium salt] | inactive: 0
6 | NCCc1c[nH]c2ccc(O)cc12 [Serotonin hydrochloride] | inactive: 0
7 | COc1ccc(OC)c(C(O)C(C)N)c1 (stereo not given) [Methoxamine hydrochloride] | inactive: 0
8 | COc1ccc2c(c1)[C@]13CCCC[C@@H]1[C@H](C2)N(C)CC3 [Dextromethorphan hydrobromide monohydrate] | inactive: 0
9 | CNCC(O)c1ccc(O)cc1 (racemic) [(+,-)-Synephrine] | inactive: 0
10 | CN1[C@@H]2CC[C@H]1C[C@@H](OC(=O)C(CO)c1ccccc1)C2 (stereo not given in full) [Atropine sulfate monohydrate] | inactive: 0
